Laboratory results taken from US8691944.
Results are given in words; binding and its absence hold for the method and conditions named. Some results given as binding are weak or reduced against the parent protein; the word gives no strength.

Protein sequences, listed by entry. Tags and fused reporters are not part of them. Lines headed by an entry give the natural chain unless they say otherwise; changes in a name come on top. Chains listed by the source or under a name are the forms on record and can include a tag or linker. Residues count along the entry.
UniProt P09038, residues 143-288: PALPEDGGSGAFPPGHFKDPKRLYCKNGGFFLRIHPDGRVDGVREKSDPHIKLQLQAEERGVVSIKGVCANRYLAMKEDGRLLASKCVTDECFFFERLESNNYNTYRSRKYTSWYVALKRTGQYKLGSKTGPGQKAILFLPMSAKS
UniProt P01137, residues 279-390: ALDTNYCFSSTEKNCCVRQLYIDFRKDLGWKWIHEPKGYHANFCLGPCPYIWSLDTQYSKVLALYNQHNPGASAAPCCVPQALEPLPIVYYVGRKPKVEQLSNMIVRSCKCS
UniProt P01127, residues 82-190: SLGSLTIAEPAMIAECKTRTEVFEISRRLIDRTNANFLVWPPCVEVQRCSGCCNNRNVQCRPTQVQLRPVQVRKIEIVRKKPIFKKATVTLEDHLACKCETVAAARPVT
vascular endothelial growth factor A (VEGF-A) (P15692, form named): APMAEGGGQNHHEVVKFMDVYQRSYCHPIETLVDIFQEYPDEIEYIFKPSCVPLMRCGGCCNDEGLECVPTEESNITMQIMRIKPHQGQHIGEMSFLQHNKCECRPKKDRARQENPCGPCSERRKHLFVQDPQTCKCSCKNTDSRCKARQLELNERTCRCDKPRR
FNIII1-7 (P02751, residues 610-1265): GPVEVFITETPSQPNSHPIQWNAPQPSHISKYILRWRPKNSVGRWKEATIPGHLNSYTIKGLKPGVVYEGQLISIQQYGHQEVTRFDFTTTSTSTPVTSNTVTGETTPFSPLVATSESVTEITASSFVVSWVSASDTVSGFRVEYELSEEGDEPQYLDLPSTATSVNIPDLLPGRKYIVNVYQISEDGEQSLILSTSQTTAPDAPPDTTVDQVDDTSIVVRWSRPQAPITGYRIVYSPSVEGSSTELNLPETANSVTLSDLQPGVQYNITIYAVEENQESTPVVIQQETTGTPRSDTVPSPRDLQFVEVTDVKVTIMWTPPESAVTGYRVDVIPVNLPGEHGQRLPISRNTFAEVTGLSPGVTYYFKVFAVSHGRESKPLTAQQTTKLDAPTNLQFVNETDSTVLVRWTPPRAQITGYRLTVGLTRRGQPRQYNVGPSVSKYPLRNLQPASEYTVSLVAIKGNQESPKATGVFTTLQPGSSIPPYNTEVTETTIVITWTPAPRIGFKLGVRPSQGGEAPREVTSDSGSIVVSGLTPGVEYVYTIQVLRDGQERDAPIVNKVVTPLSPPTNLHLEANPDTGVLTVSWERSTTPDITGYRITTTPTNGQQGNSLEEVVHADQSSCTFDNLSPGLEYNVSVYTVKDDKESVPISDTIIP
FNIII12-13 (P02751, residues 1812-1992): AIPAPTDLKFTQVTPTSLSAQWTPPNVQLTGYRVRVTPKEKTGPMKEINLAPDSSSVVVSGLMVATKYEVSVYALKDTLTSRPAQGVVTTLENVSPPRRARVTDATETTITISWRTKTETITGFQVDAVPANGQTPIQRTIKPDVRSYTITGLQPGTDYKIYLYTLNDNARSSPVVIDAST
FNIII12-15 (H), heparinII-binding domain of fibronectin (P02751, form named): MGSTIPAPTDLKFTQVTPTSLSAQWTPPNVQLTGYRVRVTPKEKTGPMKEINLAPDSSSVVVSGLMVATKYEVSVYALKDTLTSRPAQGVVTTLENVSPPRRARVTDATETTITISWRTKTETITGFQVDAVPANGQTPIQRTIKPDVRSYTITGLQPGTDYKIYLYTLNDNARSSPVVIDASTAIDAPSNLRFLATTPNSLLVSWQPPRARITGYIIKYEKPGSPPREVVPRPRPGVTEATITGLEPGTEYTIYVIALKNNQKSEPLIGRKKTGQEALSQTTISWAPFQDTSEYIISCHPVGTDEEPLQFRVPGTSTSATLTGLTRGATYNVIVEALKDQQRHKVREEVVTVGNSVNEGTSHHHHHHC
FNIII12-14 (P02751, form named): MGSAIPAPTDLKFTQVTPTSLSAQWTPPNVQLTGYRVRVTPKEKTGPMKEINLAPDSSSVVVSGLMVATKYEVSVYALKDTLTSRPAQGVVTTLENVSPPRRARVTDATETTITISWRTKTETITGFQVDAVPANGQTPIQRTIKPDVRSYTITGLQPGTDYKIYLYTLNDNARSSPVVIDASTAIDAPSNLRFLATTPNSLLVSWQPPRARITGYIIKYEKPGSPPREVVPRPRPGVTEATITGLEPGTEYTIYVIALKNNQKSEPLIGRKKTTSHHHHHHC
FNIII12-V15 (HV), composite heparinII-binding and variably-spliced IIICS domains of fibronectin (P02751, form named): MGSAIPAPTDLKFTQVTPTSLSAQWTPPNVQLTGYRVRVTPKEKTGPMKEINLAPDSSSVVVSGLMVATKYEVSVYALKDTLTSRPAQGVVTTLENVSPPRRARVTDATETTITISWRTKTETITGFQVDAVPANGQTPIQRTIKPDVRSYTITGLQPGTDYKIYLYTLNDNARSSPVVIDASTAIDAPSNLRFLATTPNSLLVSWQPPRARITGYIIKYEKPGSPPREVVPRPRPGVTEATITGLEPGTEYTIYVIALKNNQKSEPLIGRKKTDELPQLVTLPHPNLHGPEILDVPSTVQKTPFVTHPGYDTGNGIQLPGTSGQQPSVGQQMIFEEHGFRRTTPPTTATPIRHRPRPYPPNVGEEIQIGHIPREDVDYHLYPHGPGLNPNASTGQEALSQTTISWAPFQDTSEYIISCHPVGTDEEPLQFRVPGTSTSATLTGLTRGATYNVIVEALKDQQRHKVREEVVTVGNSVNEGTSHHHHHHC
FNIII1 (P02751, form named): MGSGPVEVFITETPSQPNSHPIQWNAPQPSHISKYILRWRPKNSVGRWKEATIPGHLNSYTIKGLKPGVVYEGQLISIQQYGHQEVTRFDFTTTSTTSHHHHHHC
FNIII2 (P02751, form named): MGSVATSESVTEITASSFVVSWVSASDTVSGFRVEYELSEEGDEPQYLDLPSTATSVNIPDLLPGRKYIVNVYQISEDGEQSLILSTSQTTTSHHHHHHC
FNIII1-11 (P02751, form named): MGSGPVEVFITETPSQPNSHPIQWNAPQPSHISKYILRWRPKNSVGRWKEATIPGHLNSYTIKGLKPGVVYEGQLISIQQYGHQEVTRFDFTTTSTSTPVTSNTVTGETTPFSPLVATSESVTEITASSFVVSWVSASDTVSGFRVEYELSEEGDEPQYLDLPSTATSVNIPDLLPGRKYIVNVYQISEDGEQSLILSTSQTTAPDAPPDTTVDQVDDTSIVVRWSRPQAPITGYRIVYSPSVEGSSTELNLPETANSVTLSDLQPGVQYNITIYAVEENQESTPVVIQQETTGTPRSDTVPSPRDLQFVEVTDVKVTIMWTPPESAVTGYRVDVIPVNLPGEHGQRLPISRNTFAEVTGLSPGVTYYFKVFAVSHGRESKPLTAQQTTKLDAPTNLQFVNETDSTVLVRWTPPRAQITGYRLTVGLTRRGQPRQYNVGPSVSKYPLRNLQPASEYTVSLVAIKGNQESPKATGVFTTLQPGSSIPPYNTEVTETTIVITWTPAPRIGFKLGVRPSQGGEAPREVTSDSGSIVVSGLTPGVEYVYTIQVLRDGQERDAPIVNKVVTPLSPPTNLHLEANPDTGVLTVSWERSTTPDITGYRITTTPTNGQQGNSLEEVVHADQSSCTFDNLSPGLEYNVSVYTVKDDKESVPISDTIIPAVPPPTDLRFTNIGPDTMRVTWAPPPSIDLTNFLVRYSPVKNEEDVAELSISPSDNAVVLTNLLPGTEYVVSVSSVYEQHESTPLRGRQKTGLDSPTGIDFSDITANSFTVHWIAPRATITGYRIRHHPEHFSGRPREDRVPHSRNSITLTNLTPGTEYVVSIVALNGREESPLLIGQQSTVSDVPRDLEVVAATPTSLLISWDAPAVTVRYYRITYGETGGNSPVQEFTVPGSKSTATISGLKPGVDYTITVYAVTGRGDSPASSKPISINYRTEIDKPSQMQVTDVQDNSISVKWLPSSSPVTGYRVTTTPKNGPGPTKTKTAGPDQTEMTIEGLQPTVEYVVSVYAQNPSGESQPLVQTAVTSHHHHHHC
FNIII1-2 (P02751, form named): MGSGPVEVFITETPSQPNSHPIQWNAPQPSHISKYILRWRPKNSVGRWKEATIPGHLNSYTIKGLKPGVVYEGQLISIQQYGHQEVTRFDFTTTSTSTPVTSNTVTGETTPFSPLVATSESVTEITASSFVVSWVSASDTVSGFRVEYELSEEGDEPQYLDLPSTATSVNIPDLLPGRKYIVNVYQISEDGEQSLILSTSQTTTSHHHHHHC

How the values were obtained:
[1] = target: T1, transforming growth factor β2 (TGF-β2) (UniProt P61812); test: closing statement on the data presented
T1 sequence (looked up): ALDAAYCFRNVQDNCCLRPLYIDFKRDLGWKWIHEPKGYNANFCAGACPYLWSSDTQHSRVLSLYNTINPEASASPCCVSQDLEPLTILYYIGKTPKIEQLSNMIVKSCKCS

[2] = target: basic fibroblast growth factor (bFGF, FGF-2) (UniProt P09038); test: closing statement on the data presented
[3] = target: transforming growth factor-β1 (TGF-β1) (UniProt P01137); test: closing statement on the data presented
[4] = target: platelet-derived growth factor-BB (PDGF-BB) (UniProt P01127); test: closing statement on the data presented
[5] = target: platelet-derived growth factor-BB (PDGF-BB) (UniProt P01127); test: binding assay, method not restated
[6] = target: basic fibroblast growth factor (bFGF, FGF-2) (UniProt P09038); test: binding assay, method not restated
[7] = target: transforming growth factor-β1 (TGF-β1) (UniProt P01137); test: binding assay, method not restated
[8] = target: vascular endothelial growth factor A (VEGF-A) (UniProt P15692); test: binding assay, method not restated

Measured: binding

FNIII12-15 (H), heparinII-binding domain of fibronectin (from UniProt P02751 1631-1987)
binds: [1] | [2] | [3] | [4] | [5]

FNIII1-7 (from UniProt P02751 610-1265)
binds: [6] | [7] | [8] | [5]

FNIII12-14 (from UniProt P02751 1812-2082)
binds: [5]

FNIII12-13 (from UniProt P02751 1812-1992)
binds: [5]

FNIII12-V15 (HV), composite heparinII-binding and variably-spliced IIICS domains of fibronectin (from UniProt P02751 1812-2288)
binds: [1] | [2] | [3] | [4] | [5]

FNIII1 (from UniProt P02751 610-702)
binds: [6] | [7] | [8] | [5]

FNIII2 (from UniProt P02751 722-809)
binds: [6] | [7] | [8] | [5]

FNIII1-11 (from UniProt P02751 610-1630)
binds: [7] | [5]

FNIII1-2 (from UniProt P02751 610-809)
binds: all assays above
